Data taken from US6479233B1, “Electrogenerated chemiluminescence labels for analysis and/or referencing” (IGEN International, Inc., priority 1994, dated 2002).

Experiment: ECL emission intensity (Perkin-Elmer ECL analyzer, CCD camera, photon counter)

## O=C(O)c1cccc2c1Sc1ccccc1S2 [1-THCOOH, 1-thianthrenecarboxylic acid]
Sodium phosphate buffer with TPrA
  peak ECL emission intensity, times less intense than 2-THCOOH: 6-7 times

## O=C(O)c1ccc2c(c1)Sc1ccccc1S2 [2-THCOOH, 2-thianthrenecarboxylic acid]
Equal THCOOH concentrations (20 mM) and acquisition times
  intensity of emissions, times those of 1-THCOOH: 6-7 times

## CN(C)CCCN1c2ccccc2Sc2ccc(Cl)cc21 [CPZ, chlorpromazine, reference compound]
0.11 mM CPZ, pH 7.5 sodium phosphate buffer, no added coreactant
  peak ECL emission intensity above background: 80 c/s
1.1 mM CPZ, pH 7.5 sodium phosphate buffer, no added coreactant
  peak ECL emission intensity: 850 c/s

## O=S(=O)([O-])c1ccc2c(-c3ccccc3)c3ccccc3c(-c3ccccc3)c2c1.[Na+] [DPAS, sodium 9,10-diphenylanthracene-2-sulfonate]
0.15 M TPrA, pH 7.5 sodium phosphate buffer, Perkin-Elmer analyzer
  lowest concentration on ECL intensity vs concentration calibration curve: 32 nM
Oxidative DPAS/oxalate system
  ECL emission with oxalate as coreactant: no emission was observed

## [Ru+2].c1ccc(-c2ccccn2)nc1.c1ccc(-c2ccccn2)nc1.c1ccc(-c2ccccn2)nc1 [Ru(bpy)3^2+, tris (2,2-bipyridine)ruthenium(II), reference compound]
5×10^−6 M, CCD camera, corrected for detector sensitivity
  ECL emission, times more intense than the DPAS emission: approx. 100 times
Optimized conditions
  detectable concentration, times more dilute than DPAS at similar emission intensities: about 60 times
